# These are yes or no findings as the source states them, for the method shown. In cells and extracts the contact can be indirect. Some entries that bind do so weakly or less than the wild type. Tags and fused reporters may be left off the sequences shown.
# Chains of the proteins cited; added tags and fusions are not shown. Residues count along the entry.
# UniProt P21796, residues 2-283: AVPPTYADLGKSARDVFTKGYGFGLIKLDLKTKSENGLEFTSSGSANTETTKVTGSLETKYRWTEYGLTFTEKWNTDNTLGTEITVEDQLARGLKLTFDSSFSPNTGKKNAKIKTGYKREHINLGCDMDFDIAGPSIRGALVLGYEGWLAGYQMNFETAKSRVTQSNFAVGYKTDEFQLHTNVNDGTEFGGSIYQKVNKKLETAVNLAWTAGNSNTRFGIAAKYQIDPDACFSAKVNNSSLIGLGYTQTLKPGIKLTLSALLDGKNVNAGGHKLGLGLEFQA
# T1: MFF1, differentially tagged (HA- or Myc-tagged construct) (human) (UniProt Q9GZY8)
# T1 sequence: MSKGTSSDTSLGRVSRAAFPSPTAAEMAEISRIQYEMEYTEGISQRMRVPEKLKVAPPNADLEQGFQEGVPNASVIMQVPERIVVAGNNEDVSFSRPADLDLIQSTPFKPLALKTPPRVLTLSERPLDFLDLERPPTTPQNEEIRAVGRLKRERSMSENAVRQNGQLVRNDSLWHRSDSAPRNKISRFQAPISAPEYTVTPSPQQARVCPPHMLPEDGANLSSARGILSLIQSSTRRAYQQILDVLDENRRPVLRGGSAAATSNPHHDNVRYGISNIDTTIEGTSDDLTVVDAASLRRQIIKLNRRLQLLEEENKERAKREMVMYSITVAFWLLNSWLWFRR
# T2: hexokinase-II (HK-II), endogenous in PC3 cells (human) (UniProt P52789)
# T2 sequence (looked up): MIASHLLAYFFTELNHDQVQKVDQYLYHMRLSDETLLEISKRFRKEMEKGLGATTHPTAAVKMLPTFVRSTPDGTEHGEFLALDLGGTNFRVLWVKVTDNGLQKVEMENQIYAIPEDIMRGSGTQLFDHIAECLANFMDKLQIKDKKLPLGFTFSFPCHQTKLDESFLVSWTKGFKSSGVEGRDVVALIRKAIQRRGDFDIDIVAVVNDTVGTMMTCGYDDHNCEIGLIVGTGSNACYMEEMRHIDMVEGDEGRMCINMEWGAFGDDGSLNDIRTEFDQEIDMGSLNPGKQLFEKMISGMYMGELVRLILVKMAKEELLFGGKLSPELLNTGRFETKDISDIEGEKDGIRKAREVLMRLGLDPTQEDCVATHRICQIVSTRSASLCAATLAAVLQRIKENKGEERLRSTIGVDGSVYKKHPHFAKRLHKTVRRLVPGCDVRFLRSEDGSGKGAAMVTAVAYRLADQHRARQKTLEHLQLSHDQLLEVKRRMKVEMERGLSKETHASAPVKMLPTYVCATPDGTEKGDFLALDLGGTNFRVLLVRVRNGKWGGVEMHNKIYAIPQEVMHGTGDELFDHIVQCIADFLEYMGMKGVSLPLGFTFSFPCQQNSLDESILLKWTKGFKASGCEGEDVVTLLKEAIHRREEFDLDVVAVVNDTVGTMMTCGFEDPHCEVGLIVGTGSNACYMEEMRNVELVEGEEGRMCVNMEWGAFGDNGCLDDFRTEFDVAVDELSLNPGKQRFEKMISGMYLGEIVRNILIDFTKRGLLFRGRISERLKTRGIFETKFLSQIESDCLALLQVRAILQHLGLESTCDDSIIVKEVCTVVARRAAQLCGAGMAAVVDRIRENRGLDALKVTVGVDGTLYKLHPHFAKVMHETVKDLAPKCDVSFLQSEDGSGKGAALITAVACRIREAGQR
# Experiments:
# [1] = target: T1, MFF1, differentially tagged (HA- or Myc-tagged construct) (human); assay: co-immunoprecipitation with anti-Flag from PC3 cells transfected with HA-MFF1 and Flag-MFF4, Western blot
# [2] = target: VDAC1 (endogenous, in PC3 cell extracts) (human) (UniProt P21796); assay: as above
# [3] = target: T1, MFF1, differentially tagged (HA- or Myc-tagged construct) (human); assay: co-immunoprecipitation with anti-Flag from PC3 cells transfected with Myc-MFF1 and Flag-MFF4, Western blot
# [4] = target: VDAC1 (endogenous, in PC3 cell extracts) (human) (UniProt P21796); assay: as above
# [5] = target: VDAC1 (endogenous, in PC3 cell extracts) (human) (UniProt P21796); assay: co-immunoprecipitation, Western blot
# [6] = target: VDAC1 (endogenous, in PC3 cell extracts) (human) (UniProt P21796); assay: co-immunoprecipitation with anti-Flag from PC3 cells, Western blot
# [7] = target: T2, hexokinase-II (HK-II), endogenous in PC3 cells (human); assay: as above
# [8] = target: VDAC1 (endogenous, in PC3 cell extracts) (human) (UniProt P21796); assay: co-immunoprecipitation with anti-Flag from transfected PC3 cells, Western blot
# [9] = target: T2, hexokinase-II (HK-II), endogenous in PC3 cells (human); assay: as above
# [10] = target: T1, MFF1, differentially tagged (HA- or Myc-tagged construct) (human); assay: co-immunoprecipitation with anti-Flag from PC3 cells transfected with HA-MFF1 and Flag-MFF2, Western blot
# [11] = target: T1, MFF1, differentially tagged (HA- or Myc-tagged construct) (human); assay: co-immunoprecipitation with anti-Flag from PC3 cells transfected with Myc-MFF1 and Flag-MFF2, Western blot
# [12] = target: VDAC1 (endogenous, in PC3 cell extracts) (human) (UniProt P21796); assay: as above
binding [1],binding [2],binding [3],binding [4],binding [5],binding [6],binding [7],binding [8],binding [9],binding [10],binding [11],binding [12],Binder
binds,binds,binds,binds,–,–,–,–,–,–,–,–,"MFF4, differentially tagged (HA-, Myc- or Flag-tagged construct) (protein, human, UniProt Q9GZY8-4 1-218, looked up, not shown: small tags and cut ends) MAEISRIQYEMEYTEGISQRMRVPEKLKVAPPNADLEQGFQEGVPNASVIMQVPERIVVAGNNEDVSFSRPADLDLIQSTPFKPLALKTPPRVLTLSERPLDFLDLERPPTTPQNEEIRAVGRLKRERSMSENAVRQNGQLVRNDSLYGISNIDTTIEGTSDDLTVVDAASLRRQIIKLNRRLQLLEEENKERAKREMVMYSITVAFWLLNSWLWFRR"
–,–,–,–,binds,binds,binds,binds,binds,binds,binds,binds,"Flag-MFF2 (protein, human, UniProt Q9GZY8-2 1-291, looked up, not shown: small tags and cut ends) MAEISRIQYEMEYTEGISQRMRVPEKLKVAPPNADLEQGFQEGVPNASVIMQVPERIVVAGNNEDVSFSRPADLDLIQSTPFKPLALKTPPRVLTLSERPLDFLDLERPPTTPQNEEIRAVGRLKRERSMSENAVRQNGQLVRNDSLVTPSPQQARVCPPHMLPEDGANLSSARGILSLIQSSTRRAYQQILDVLDENRRPVLRGGSAAATSNPHHDNVRYGISNIDTTIEGTSDDLTVVDAASLRRQIIKLNRRLQLLEEENKERAKREMVMYSITVAFWLLNSWLWFRR"
